The record followed here is publication PMC9935853.

Amino acid sequences for entries named in this document (tags omitted). A change or cut given only in a name is not applied to a line headed by its entry.
UniProt O94705: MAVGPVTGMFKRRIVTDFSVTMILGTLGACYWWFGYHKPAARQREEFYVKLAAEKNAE

No constants are given. Whether binding was seen depends on the method and setting. Binding can be weak; no strength is given. Sequences can lack the tags named with a protein.

In this test the target is T1, S. pombe cytochrome c oxidase subunit Cox5 with a C-terminal twin-strep tag (S. pombe) (UniProt O74988).
T1 sequence: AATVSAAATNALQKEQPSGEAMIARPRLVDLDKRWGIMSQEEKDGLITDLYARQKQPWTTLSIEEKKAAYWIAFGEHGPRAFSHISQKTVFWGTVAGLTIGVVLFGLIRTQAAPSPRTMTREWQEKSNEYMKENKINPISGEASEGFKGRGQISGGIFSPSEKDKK
The test is described as follows: cryo-EM structure; CIV purified through Cox5-2xstrep in GDN (25 mM KH2PO4 pH 8.0, 150 mM KCl, 0.01% GDN), ~4 mg/ml on grids; map at 3.4 Å overall.

With “S. pombe cytochrome c oxidase subunit Cox6”, the binding entry is “binds”.

As for “S. pombe cytochrome c oxidase subunit Cox9 (from UniProt O94705)”, the binding result is listed as “binds”.
